Results reported in the odorant receptor screen of Mainland et al. (2015).
Several values for one entry are separate records, joined by “and”; a condition that tells them apart may be missing. Equal values may be shown once. The list shows a part of the results. Each value is one well over the wells without odorant, computed here; the data are noisy.

Chains of the proteins cited; added tags and fusions are not shown. Chains listed by the source or under a name are the forms on record and can include a tag or linker.
pseudo, as listed by the source: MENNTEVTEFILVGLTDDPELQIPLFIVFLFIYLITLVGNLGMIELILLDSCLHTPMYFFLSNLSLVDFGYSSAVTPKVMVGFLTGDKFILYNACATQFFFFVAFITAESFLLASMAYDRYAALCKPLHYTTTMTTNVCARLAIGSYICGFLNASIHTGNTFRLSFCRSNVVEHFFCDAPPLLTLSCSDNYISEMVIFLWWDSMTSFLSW

Assays:
Assay in all cases: odorant receptor activation (CRE luciferase / Renilla) (fold of no-odor wells); higher = more activation
Settings in all cases: 100 µM
[1] = system: OR9K2 clone 1389
[2] = system: OR9Q1 A2V clone 1713
[3] = system: OR9Q2 C179R clone 1310
[4] = system: OR9Q2 clone 1177
[5] = system: OR9Q2 clone 1501
[6] = system: pseudo clone 1035
[7] = system: pseudo clone 1218
[8] = system: pseudo clone 1380
[9] = system: pseudo clone 1384
[10] = system: pseudo clone 1417
[11] = system: pseudo clone 1419

Row | Compound | odorant receptor activation [1] | odorant receptor activation [2] | odorant receptor activation [3] | odorant receptor activation [4] | odorant receptor activation [5] | odorant receptor activation [6] | odorant receptor activation [7] | odorant receptor activation [8] | odorant receptor activation [9] | odorant receptor activation [10] | odorant receptor activation [11]
1 | CC(=O)OCC=C(C)CCC=C(C)C [geranyl acetate] | 1.24 | 0.94 | 0.963 and 0.977 | 1.01 | 1.14 and 1.27 | 2.25 | 0.892 | 1.73 | 1.28 | 1.07 | 0.946
2 | C=CCSCC=C [diallyl sulfide] | 1.36 | 0.816 | 0.897 | 0.886 | 1.24 | 0.778 | 1.15 | 1.32 | 0.938 | 1.64 | 0.973
3 | CC12CCC(CC1)C(C)(C)O2 [cineole] | 0.198 | 0.879 | 1.1 | 0.994 | 0.959 | 0.745 | 0.929 | 0.258 | 0.157 | 0.219 | 0.233
4 | c1ccc(Oc2ccccc2)cc1 [diphenyl ether] | 1.01 | 0.969 | 1.13 | 1.01 | 0.949 | 0.848 | 0.929 | 1.08 | 0.914 | 1.25 | 1.1
5 | c1cnccn1 [pyrazine] | 1.14 | 1.01 | 0.689 | 0.839 | 0.743 | 0.996 | 0.896 | 1.5 | 1.04 | 1.23 | 1.46
6 | CCCCCC(=O)O [caproic acid] | 0.221 | 0.871 | 0.759 | 1.07 | 1.2 | 0.874 | 0.984 | 0.294 | 0.155 | 0.221 | 0.241
7 | O=C1CCCCCCCCCCCCCCO1 [pentadecalactone] | 1.09 | 1 | 0.863 | 0.901 | 0.948 | 0.869 | 0.676 | 1.28 | 0.98 | 1.24 | 1.6
8 | CC(=O)OC(C)(C)C1CC=C(C)CC1 (configuration not stated) [terpinyl acetate] | 0.931 | 0.713 | 0.808 | 1.22 | 1.04 | 1.27 | 1.07 | 1.11 | 1.02 | 0.982 | 1.4
9 | C=C(C)C1CC=CCC1 (configuration not stated) [r-limonene] | 1.4 and 0.966 | 1.12 | 0.747 and 0.647 | 1.02 and 0.635 | 0.932 and 1.27 and 0.709 | 1.06 and 1.19 | 0.971 and 0.529 | 1.44 and 0.822 | 1.41 and 1.07 | 1.25 and 0.975 | 1.3 and 1.02
10 | CCCCCCCC=O [octyl aldehyde] | 0.756 | 0.84 | 1.12 | 1.21 | 1.03 | 1.1 | 0.861 | 0.749 | 0.839 | 0.719 | 0.897
11 | COC(=O)c1ccccc1O [methyl salicylate] | 1.07 | 1.47 | 0.693 | 0.84 | 1.06 | 1.03 | 0.847 | 1.05 | 1.11 | 1.07 | 1.59
12 | CC1CCC(C(C)C)C(O)C1 (single isomer, unassigned; (-)) [(-)-menthol] | 1.18 | 0.81 | 0.597 | 0.789 | 2.95 | 3.1 | 1.07 | 0.9 | 0.591 | 0.554 | 0.87
13 | CC(C)C(=O)O [isobutyric acid] | 0.918 | 1.92 | 1.19 and 0.869 | 0.979 | 0.744 and 0.947 | 1.05 | 1.22 | 0.847 | 0.626 | 0.836 | 0.705
14 | CC1=CCC(C(C)(C)O)CC1 (configuration not stated) [terpineol] | 1.21 | 0.829 | 0.88 | 1.11 | 0.809 | 1.09 | 1.2 | 1.06 | 1.11 | 1.18 | 1.18
15 | CC12CCC(C1)C(C)(C)C2=O (configuration not stated) [fenchone] | 0.882 | 0.624 | 0.997 | 0.944 | 0.897 | 0.973 | 1.05 | 0.968 | 0.78 | 1.3 | 0.903
16 | CC/C=C\CCO [cis-3-hexen-1-ol] | 0.265 | 0.813 | 1.22 | 1.28 | 1.06 | 1.07 | 1.03 | 0.277 | 0.169 | 0.27 | 0.286
17 | C=CC(C)(O)CCC=C(C)C (configuration not stated) [linalool] | 0.764 | 1.48 | 1.13 | 1.14 | 0.814 | 1.05 | 1 | 0.894 | 1.12 | 0.722 | 0.95
18 | CC1CCC(C(C)C)C(O)C1 (single isomer, unassigned; (+)) [(+)-menthol] | 1.36 | 0.756 | 0.719 | 1.04 | 1.21 | 3.67 | 0.954 | 0.692 | 0.771 | 0.948 | 0.9
19 | CC(C)C=O [isobutyraldehyde] | 0.798 | 1.33 | 0.984 and 0.979 | 1.1 | 0.905 and 0.976 | 2.1 | 1.38 | 0.877 | 0.914 | 0.869 | 0.961
20 | C=CCc1ccc(O)c(OC)c1 [eugenol] | 1.16 and 1.65 | 1.11 | 1.97 and 1.19 | 3.3 and 1.3 | 1.34 and 0.858 and 1.27 | 0.745 and 1.26 | 1.41 and 1.16 | 1.38 and 1.22 | 1.73 and 0.983 | 1.4 and 1.77 | 1.95 and 1.23
21 | CCC1(O)C2(C)CCC(C2)C1(C)C (configuration not stated) [2-ethylfenchol] | 1.36 | 0.618 | 0.643 | 0.951 | 1.25 | 2.83 | 0.636 | 0.954 | 0.737 | 0.693 | 0.746
22 | CCCCCOC(C)=O [n-amyl acetate] | 0.803 | 0.841 | 0.857 | 0.644 | 1.01 and 0.695 | 1.39 | 0.529 | 0.724 | 0.82 | 0.946 | 1.06
23 | CC=Cc1ccc(O)c(OC)c1 [isoeugenol] | 1.73 | 2.15 | 1.02 and 1.13 | 0.891 | 1.24 and 1.57 | 1.16 | 1.37 | 1.53 | 1.48 | 1.24 | 1.33
24 | CCCCCCCOC(C)=O [heptyl acetate] | 0.931 | 0.705 | 0.98 and 0.893 | 0.912 | 0.706 and 1.05 | 1.94 | 1.02 | 1.2 | 0.96 | 1.05 | 0.996
25 | CCCCCCCCOC(C)=O [octyl acetate] | 1.19 | 0.927 | 1.11 | 1.32 | 0.845 | 0.932 | 0.901 | 1.03 | 1.18 | 0.743 | 1.04
26 | CC(=O)C(C)=O [diacetyl] | 1.33 | 0.875 | 0.901 | 1.05 | 1.49 | 0.894 | 1.06 | 1.3 | 0.887 | 1.4 | 1.25
27 | C=CCc1ccc(OC)c(OC)c1 [eugenol methyl ether] | 1.79 | 0.57 | 1.12 | 1.63 | 1.38 | 1.19 | 1.34 | 1.45 | 1.39 | 2.35 | 1.77

Full records, quoted from the list. Values in the order: odorant receptor activation [1]	odorant receptor activation [2]	odorant receptor activation [3]	odorant receptor activation [4]	odorant receptor activation [5]	odorant receptor activation [6]	odorant receptor activation [7]	odorant receptor activation [8]	odorant receptor activation [9]	odorant receptor activation [10]	odorant receptor activation [11]
C=C(C)C1CC=CCC1 (configuration not stated) [r-limonene] in the list: 1.4 and 0.966	1.12	0.747 and 0.647	1.02 and 0.635	0.932 and 1.27 and 0.709	1.06 and 1.19	0.971 and 0.529	1.44 and 0.822	1.41 and 1.07	1.25 and 0.975	1.3 and 1.02
CC(C)C=O [isobutyraldehyde] in the list: 0.798	1.33	0.984 and 0.979	1.1	0.905 and 0.976	2.1	1.38	0.877	0.914	0.869	0.961
